This passage reports binding results from paper doi:10.1101/2021.07.08.451585.

Results are given in words; binding and its absence hold for the method and conditions named. Binding seen in cells or lysates may run through a third protein. Some binding calls cover weakened binding; strength is not graded here. Sequences can lack the tags named with a protein.

The target of this assay is T1, BioID2-tagged wildtype human CLUH (BioID2-3xHA-CLUH) (human) (UniProt O75153).
T1 sequence: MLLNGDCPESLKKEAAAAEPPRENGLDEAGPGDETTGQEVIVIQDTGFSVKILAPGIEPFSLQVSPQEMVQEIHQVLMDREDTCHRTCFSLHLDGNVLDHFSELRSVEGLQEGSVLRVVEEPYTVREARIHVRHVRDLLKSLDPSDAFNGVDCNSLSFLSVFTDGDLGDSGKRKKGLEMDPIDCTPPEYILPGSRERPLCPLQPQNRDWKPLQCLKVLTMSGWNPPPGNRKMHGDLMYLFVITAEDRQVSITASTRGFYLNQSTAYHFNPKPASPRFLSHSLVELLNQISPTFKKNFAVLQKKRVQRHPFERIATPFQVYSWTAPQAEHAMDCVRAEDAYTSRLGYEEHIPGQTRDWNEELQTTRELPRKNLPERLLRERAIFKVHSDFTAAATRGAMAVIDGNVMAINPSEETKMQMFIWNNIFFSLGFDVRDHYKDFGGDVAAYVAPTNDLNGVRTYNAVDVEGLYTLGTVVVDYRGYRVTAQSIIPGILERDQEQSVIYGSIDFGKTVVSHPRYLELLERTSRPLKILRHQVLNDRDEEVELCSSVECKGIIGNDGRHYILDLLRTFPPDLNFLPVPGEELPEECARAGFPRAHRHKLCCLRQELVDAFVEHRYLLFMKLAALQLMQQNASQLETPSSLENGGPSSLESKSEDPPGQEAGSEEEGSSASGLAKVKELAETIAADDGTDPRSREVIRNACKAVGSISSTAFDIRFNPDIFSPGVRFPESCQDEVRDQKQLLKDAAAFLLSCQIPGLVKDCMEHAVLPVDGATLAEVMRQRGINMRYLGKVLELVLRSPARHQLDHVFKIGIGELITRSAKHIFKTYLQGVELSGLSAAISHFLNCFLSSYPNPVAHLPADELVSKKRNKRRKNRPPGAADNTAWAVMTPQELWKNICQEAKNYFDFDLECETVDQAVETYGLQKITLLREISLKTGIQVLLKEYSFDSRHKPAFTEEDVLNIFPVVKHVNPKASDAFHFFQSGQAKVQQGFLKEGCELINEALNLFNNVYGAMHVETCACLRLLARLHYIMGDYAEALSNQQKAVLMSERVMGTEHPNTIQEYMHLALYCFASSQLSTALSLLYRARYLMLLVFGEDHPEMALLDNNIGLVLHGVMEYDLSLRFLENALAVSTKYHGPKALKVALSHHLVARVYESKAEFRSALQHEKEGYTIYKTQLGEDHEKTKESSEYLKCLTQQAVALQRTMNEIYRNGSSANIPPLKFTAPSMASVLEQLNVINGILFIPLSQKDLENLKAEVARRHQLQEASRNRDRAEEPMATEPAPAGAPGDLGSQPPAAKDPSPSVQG
Nature of the assay: co-IP.

B1: SPAG5, endogenous in HCT116 cells (protein, UniProt Q96R06 1-1193)
chain: MWRVKKLSLSLSPSPQTGKPSMRTPLRELTLQPGALTNSGKRSPACSSLTPSLCKLGLQEGSNNSSPVDFVNNKRTDLSSEHFSHSSKWLETCQHESDEQPLDPIPQISSTPKTSEEAVDPLGNYMVKTIVLVPSPLGQQQDMIFEARLDTMAETNSISLNGPLRTDDLVREEVAPCMGDRFSEVAAVSEKPIFQESPSHLLEESPPNPCSEQLHCSKESLSSRTEAVREDLVPSESNAFLPSSVLWLSPSTALAADFRVNHVDPEEEIVEHGAMEEREMRFPTHPKESETEDQALVSSVEDILSTCLTPNLVEMESQEAPGPAVEDVGRILGSDTESWMSPLAWLEKGVNTSVMLENLRQSLSLPSMLRDAAIGTTPFSTCSVGTWFTPSAPQEKSTNTSQTGLVGTKHSTSETEQLLCGRPPDLTALSRHDLEDNLLSSLVILEVLSRQLRDWKSQLAVPHPETQDSSTQTDTSHSGITNKLQHLKESHEMGQALQQARNVMQSWVLISKELISLLHLSLLHLEEDKTTVSQESRRAETLVCCCFDLLKKLRAKLQSLKAEREEARHREEMALRGKDAAEIVLEAFCAHASQRISQLEQDLASMREFRGLLKDAQTQLVGLHAKQEELVQQTVSLTSTLQQDWRSMQLDYTTWTALLSRSRQLTEKLTVKSQQALQERDVAIEEKQEVSRVLEQVSAQLEECKGQTEQLELENSRLATDLRAQLQILANMDSQLKELQSQHTHCAQDLAMKDELLCQLTQSNEEQAAQWQKEEMALKHMQAELQQQQAVLAKEVRDLKETLEFADQENQVAHLELGQVECQLKTTLEVLRERSLQCENLKDTVENLTAKLASTIADNQEQDLEKTRQYSQKLGLLTEQLQSLTLFLQTKLKEKTEQETLLLSTACPPTQEHPLPNDRTFLGSILTAVADEEPESTPVPLLGSDKSAFTRVASMVSLQPAETPGMEESLAEMSIMTTELQSLCSLLQESKEEAIRTLQRKICELQARLQAQEEQHQEVQKAKEADIEKLNQALCLRYKNEKELQEVIQQQNEKILEQIDKSGELISLREEVTHLTRSLRRAETETKVLQEALAGQLDSNCQPMATNWIQEKVWLSQEVDKLRVMFLEMKNEKEKLMIKFQSHRNILEENLRRSDKELEKLDDIVQHIYKTLLSIPEVVRGCKELQGLLEFLS
With B1, the binding entry was “binds”.
